Assay results from the supplement of paper PMC10849652.
The list shows a part of the results.

By UniProt entry, the sequences of proteins in these tests, tags left out. Where a name states a change or a piece, a line headed by the entry shows the natural chain unless it says otherwise.
UniProt Q9Y343: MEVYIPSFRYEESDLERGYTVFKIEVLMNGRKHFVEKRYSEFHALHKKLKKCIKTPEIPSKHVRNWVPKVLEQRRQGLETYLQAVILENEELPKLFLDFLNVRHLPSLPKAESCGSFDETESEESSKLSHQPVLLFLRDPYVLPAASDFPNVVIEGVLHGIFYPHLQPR
UniProt B2RUZ4: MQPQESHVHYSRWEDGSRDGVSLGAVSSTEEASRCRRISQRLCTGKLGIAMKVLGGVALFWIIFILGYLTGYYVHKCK
UniProt Q5SQN1: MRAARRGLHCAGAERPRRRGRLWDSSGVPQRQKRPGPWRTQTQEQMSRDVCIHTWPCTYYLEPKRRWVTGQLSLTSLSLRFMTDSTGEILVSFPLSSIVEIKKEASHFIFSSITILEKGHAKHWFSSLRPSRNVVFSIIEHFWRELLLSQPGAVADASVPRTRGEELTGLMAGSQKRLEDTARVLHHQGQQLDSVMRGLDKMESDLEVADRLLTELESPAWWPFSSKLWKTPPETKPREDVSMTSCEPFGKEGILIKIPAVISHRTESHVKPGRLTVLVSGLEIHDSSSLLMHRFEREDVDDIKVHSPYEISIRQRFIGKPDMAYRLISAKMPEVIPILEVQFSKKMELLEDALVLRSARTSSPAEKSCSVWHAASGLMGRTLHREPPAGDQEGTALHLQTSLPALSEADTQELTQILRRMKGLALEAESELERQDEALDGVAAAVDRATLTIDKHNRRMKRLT
UniProt Q9Y5W8: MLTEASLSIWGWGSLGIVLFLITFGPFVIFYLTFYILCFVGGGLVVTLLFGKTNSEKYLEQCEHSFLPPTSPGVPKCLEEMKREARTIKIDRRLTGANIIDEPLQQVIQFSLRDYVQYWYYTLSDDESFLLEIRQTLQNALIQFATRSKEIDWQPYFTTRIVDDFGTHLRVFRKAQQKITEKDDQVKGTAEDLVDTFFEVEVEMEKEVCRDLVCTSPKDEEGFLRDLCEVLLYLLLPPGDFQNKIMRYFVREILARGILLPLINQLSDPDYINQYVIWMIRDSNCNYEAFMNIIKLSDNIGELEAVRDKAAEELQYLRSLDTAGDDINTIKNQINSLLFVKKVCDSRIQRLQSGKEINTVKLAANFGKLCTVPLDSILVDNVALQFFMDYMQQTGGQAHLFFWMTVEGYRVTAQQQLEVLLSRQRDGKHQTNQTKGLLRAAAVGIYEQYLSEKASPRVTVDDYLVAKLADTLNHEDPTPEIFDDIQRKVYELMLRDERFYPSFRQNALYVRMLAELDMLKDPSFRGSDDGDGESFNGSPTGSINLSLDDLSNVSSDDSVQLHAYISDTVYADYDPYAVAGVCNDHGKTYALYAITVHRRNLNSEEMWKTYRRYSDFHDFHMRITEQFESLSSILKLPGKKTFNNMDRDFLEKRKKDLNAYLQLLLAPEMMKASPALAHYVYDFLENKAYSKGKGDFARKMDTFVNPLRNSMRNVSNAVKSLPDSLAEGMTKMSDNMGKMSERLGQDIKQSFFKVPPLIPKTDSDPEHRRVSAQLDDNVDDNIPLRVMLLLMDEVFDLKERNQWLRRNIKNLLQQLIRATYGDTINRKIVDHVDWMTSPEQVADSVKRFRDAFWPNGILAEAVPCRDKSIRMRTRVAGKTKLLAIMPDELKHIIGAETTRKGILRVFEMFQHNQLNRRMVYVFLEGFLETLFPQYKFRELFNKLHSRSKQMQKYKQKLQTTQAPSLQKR
UniProt Q92966: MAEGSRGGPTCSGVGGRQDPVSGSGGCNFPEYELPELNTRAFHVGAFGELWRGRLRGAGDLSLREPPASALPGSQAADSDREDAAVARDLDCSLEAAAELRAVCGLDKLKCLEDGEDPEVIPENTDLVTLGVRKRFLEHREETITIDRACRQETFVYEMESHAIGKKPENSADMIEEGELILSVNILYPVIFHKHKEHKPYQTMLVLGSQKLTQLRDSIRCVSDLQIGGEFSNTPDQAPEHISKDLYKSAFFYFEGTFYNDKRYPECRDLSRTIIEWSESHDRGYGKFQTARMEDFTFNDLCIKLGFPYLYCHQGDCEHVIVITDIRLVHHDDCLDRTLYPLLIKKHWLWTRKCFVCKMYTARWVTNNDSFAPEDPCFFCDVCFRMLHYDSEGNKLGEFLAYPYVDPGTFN
UniProt Q9H4I9: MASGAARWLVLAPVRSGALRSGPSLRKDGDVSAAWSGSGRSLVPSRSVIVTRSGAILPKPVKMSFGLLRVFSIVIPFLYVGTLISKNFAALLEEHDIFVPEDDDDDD
UniProt Q13487, whole entry, looked up: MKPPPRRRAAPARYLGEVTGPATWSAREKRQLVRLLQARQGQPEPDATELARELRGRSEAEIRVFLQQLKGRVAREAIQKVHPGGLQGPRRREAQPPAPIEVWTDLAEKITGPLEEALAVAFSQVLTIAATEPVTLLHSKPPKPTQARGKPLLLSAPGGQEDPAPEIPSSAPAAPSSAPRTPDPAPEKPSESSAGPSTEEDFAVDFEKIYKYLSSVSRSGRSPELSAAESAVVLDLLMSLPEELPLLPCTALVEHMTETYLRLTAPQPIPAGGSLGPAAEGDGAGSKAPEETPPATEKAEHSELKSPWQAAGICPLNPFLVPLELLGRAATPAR
UniProt Q5SXM2: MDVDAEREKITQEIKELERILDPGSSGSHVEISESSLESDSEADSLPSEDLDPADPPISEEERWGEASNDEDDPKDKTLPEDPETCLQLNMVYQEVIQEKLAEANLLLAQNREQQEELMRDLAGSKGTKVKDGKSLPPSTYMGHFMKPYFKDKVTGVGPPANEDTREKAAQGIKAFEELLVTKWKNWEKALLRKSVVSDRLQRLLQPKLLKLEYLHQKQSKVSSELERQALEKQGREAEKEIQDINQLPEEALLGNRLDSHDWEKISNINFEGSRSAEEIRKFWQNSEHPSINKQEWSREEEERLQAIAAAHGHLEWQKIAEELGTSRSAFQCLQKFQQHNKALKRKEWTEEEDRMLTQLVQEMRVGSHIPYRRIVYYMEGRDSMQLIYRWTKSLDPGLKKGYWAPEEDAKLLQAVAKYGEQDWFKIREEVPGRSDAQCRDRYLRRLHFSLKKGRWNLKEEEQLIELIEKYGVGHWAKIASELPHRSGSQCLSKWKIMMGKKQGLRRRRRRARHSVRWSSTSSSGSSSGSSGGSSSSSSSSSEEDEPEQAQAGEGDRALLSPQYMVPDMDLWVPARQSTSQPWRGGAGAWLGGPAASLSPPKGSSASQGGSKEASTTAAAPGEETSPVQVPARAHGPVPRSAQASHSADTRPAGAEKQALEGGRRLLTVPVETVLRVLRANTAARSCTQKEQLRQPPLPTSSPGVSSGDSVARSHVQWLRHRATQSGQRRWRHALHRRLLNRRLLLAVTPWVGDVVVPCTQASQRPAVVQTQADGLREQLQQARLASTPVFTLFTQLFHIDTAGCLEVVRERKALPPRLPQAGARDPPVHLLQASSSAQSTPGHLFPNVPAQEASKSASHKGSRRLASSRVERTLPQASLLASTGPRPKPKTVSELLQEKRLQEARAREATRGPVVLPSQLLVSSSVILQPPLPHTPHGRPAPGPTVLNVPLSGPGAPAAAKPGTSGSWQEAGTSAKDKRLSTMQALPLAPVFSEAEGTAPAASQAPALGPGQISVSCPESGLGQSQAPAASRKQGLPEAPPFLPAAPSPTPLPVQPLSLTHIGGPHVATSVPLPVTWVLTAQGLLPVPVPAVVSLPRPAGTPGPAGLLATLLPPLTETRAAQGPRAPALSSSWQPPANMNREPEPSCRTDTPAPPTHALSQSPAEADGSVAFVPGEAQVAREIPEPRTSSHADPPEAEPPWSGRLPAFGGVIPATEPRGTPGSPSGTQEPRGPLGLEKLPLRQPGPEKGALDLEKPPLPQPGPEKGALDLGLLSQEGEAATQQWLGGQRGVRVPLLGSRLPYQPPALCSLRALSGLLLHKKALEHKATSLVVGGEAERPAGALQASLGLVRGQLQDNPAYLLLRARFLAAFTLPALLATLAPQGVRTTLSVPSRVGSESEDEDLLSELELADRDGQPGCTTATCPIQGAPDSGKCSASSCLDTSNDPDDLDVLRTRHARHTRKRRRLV
UniProt P08294: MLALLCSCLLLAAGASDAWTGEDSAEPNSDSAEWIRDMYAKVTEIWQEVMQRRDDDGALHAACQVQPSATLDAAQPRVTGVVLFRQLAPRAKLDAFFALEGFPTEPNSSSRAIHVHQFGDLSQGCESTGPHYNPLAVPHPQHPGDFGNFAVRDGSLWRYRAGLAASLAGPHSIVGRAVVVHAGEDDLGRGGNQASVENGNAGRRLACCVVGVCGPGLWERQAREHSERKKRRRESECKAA
UniProt Q15506: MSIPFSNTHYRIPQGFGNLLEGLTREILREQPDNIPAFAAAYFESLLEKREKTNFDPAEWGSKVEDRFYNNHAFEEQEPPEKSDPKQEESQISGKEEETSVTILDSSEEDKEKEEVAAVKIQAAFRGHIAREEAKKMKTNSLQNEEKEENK
UniProt Q9NXE4: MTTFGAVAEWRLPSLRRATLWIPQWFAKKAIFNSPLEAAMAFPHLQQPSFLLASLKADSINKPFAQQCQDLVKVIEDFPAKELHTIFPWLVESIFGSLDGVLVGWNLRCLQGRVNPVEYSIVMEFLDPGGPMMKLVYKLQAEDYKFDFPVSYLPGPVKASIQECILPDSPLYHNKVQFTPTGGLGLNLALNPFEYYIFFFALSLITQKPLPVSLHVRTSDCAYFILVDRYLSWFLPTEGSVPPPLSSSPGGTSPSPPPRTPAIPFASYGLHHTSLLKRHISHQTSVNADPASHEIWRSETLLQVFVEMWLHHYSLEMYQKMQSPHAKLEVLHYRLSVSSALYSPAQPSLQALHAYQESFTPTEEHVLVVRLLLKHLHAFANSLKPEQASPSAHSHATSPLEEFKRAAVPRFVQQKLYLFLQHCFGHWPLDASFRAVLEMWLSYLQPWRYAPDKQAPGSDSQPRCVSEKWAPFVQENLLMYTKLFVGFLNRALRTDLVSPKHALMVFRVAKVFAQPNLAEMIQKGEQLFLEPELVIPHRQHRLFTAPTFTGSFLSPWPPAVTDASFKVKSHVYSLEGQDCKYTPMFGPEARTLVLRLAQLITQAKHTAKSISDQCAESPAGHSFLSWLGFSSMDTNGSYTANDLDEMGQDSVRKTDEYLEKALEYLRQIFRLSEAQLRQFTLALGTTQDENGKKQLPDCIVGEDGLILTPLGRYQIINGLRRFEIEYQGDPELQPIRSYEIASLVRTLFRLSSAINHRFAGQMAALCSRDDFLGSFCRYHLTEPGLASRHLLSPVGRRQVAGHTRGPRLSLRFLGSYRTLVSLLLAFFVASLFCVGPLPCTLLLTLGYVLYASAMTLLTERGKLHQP
UniProt O60271: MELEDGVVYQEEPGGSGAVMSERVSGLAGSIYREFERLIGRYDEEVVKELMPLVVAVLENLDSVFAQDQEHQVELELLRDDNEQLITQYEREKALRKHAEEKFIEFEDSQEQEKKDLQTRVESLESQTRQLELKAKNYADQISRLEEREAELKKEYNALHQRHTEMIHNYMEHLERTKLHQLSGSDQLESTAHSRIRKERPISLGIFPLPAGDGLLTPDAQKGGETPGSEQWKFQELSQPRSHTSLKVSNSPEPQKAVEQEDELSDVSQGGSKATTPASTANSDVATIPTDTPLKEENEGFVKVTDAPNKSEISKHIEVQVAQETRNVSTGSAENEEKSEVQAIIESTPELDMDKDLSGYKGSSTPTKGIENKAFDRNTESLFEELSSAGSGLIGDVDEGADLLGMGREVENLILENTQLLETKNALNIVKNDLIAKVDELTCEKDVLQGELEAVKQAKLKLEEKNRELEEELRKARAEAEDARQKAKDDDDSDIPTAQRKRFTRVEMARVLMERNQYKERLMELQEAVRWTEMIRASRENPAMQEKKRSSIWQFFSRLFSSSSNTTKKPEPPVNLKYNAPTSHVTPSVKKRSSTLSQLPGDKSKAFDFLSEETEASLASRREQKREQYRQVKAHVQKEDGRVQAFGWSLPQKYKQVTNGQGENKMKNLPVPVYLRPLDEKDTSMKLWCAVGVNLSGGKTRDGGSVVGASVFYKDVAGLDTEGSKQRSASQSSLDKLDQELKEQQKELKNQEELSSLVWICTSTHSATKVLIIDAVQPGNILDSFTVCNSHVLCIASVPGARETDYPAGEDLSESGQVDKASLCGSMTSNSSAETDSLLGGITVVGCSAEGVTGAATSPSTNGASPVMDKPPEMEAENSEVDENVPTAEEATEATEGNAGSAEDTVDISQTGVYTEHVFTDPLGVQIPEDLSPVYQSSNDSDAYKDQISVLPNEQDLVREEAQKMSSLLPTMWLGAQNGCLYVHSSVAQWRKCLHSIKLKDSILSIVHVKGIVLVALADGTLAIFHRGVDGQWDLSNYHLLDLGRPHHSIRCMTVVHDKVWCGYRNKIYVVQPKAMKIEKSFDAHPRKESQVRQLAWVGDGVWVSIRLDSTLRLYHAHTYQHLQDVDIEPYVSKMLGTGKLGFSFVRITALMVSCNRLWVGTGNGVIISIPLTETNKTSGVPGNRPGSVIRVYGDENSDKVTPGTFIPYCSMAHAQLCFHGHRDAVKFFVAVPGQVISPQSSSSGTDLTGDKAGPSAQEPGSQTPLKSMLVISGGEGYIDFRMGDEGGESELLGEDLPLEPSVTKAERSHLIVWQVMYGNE

Each target was assayed with C#Cc1cccc(Nc2ncnc3cc(OCCOC)c(OCCOC)cc23)c1 [erlotinib] (assay: log2 fold change, soluble protein after heating vs DMSO (PISA); higher = thermal stabilisation; K562 lysate, 10 uM; active = over 0.2 and 3.5 SD of the protein, either way, in both replicates (recomputed)).
In short: (§1)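 A 30 min treatment with 10 μM compound was applied to crude K562 extract at 1 mg/mL protein in PBS pH 7.4 with 1 mM MgCl2. Heating for 3 min spanned 48°C-58°C, after which aliquots were pooled, adjusted to 0.5% NP-40 at 4°C and spun at 21,000xg for 90 min. TMTpro 16plex LC-MS/MS of the supernatant, with channel sums equalised, gave values recorded as log-two fold change in thermal stability against solvent controls, from duplicates.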

log2 fold change, inactive:
SNX10 (UniProt Q9Y5X0) 0.003
SNX24 (UniProt Q9Y343) -0.13
SMIM1 (UniProt B2RUZ4) 0.172
SNAP47 (UniProt Q5SQN1) -0.017
SNX13 (UniProt Q9Y5W8) 0.078
SNAPC3 (UniProt Q92966) -0.047
SMARCA4 isoform 4 (UniProt P51532) 0.052
SMPD1 (UniProt P17405) -0.022
SMYD4 (UniProt Q8IYR2) 0.151
SNX25 (UniProt Q9H3E2) 0.018
SMDT1 (UniProt Q9H4I9) -0.013
SNAPC2 (UniProt Q13487) 0.131
SNX29 (UniProt Q8TEQ0) -0.03
SNX30 (UniProt Q5VWJ9) -0.066
SP3 (UniProt Q02447) -0.045
SNX19 (UniProt Q92543) 0.012

log2 fold change, active:
SMPD2 (UniProt O60906) -1.38

The targets below were run with C/C(=N\NC(=O)C1=CC(=CC=C1)S(=O)(=O)N2CCOCC2)/C3=C(C=CC(=C3)Cl)O in the same assay as above.
In short: as §1

log2 fold change, inactive:
SNAPC4 (UniProt Q5SXM2) -0.015
SOD3 (UniProt P08294) -0.07
SPAG1 (UniProt Q07617) -0.045
SPA17 (UniProt Q15506) -0.047
SMPD4 isoform 4 (UniProt Q9NXE4) -0.178
SMPDL3B (UniProt Q92485) -0.049
SNAPC5 (UniProt O75971) 0.109
SMPDL3A (UniProt Q92484) -0.034
SPAG9 isoform 4 (UniProt O60271) 0.108
SOX12 (UniProt O15370) -0.476
SOX11 (UniProt P35716) 0.046
SMIM11A (UniProt P58511) -0.271

What follows are targets tested with C1=CC(=CC=C1C2=NC3=C(N2)C=C(C=C3)C(=O)N)OC4=CC=C(C=C4)Cl in the same assay as above.
In short: as §1

log2 fold change, inactive:
SNX10 (UniProt Q9Y5X0) 0.052
SNX24 (UniProt Q9Y343) -0.121
SMIM1 (UniProt B2RUZ4) -0.145
SNAP47 (UniProt Q5SQN1) -0.21
SNX13 (UniProt Q9Y5W8) -0.142
SNAPC3 (UniProt Q92966) -0.04
SMARCA4 isoform 4 (UniProt P51532) 0.178
SMPD1 (UniProt P17405) 0.03
SMYD4 (UniProt Q8IYR2) 0.015
SNX25 (UniProt Q9H3E2) -0.045
SMDT1 (UniProt Q9H4I9) 0.024
SNAPC2 (UniProt Q13487) 0.022
SNX29 (UniProt Q8TEQ0) -0.047
SMPD2 (UniProt O60906) -0.551
SNX30 (UniProt Q5VWJ9) -0.004
SP3 (UniProt Q02447) 0.061
SNX19 (UniProt Q92543) 0.19

Each target was assayed with C1=CC2=C(C=CC(=C2)/C=C\3/C(=O)NC(=NCC4=CC=CS4)S3)N=C1 in the same assay as above.
In short: as §1

log2 fold change, inactive:
SNAPC4 (UniProt Q5SXM2) -0.008
SOD3 (UniProt P08294) 0.079
SPAG1 (UniProt Q07617) -0.089
SPA17 (UniProt Q15506) 0.01
SMPD4 isoform 4 (UniProt Q9NXE4) 0.086
SMPDL3B (UniProt Q92485) -0.158
SNAPC5 (UniProt O75971) 0.011
SMPDL3A (UniProt Q92484) -0.107
SPAG9 isoform 4 (UniProt O60271) 0.059
SOX12 (UniProt O15370) -0.003
SOX11 (UniProt P35716) -0.036
SMIM11A (UniProt P58511) -0.006

The targets below were run with C1=CC2=NC=CN=C2C=C1/C=C/3\C(=O)NC(=O)S3 in the same assay as above.
In short: as §1

log2 fold change, inactive:
SNX24 (UniProt Q9Y343) 0.004
SP2 (UniProt Q02086) 0.045
SMIM1 (UniProt B2RUZ4) -0.114
SNAP47 (UniProt Q5SQN1) -0.097
SNX13 (UniProt Q9Y5W8) 0
SNAPC4 (UniProt Q5SXM2) -0.002
SMIM4 (UniProt Q8WVI0) 0.145
SNAPC3 (UniProt Q92966) -0.125
SOD3 (UniProt P08294) 0.018
SMPD1 (UniProt P17405) 0.051
SNX33 (UniProt Q8WV41) -0.006
SPA17 (UniProt Q15506) -0.033
SMPD4 isoform 4 (UniProt Q9NXE4) 0.055
SMDT1 (UniProt Q9H4I9) 0.022
SNAPC2 (UniProt Q13487) -0.21
SMC4 (UniProt C9JJ64) -0.013
SNRNP25 (UniProt Q9BV90) 0.017
SMARCC2 isoform 3 (UniProt Q8TAQ2) -0.021
SPAG9 isoform 4 (UniProt O60271) 0.048
SOX12 (UniProt O15370) -0.056
SNX30 (UniProt Q5VWJ9) -0.134
SP3 (UniProt Q02447) -0.046

log2 fold change, active:
SPAG1 (UniProt Q07617) 1.01
